Source: PubChem BioAssay AID1224828 (NIAID, 2016)
The deposit covers about 17,000 reagents; shown is a part drawn at random. 762 of them (4.5%) count as active. 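Active calls include both raised and lowered p65 entry, mostly lowered; wells with fewer than 50 cells lack a z-score.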 Raw values are not corrected between plates. Unmarked entries are inactive. No sequences are given here.

Purpose: 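Find genes required for NF-kappaB p65 moving into the nucleus after LPS in mouse macrophages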 (primary screen)
Cell system: mouse RAW264.7 G9 macrophage reporter cells (GFP-p65, Tnf promoter-mCherry)
Knock-down reagent: siRNA pool against mouse genes, 100 nM
Duration: 2 days siRNA transfection, then 40 min LPS before fixation
Treatment: LPS (Salmonella minnesota R595) at 10 ng/ml
Read-out: 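Imaged p65 nuclear translocation ratio, normalised to the plate median, converted to robust z-scores and averaged across two replicates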
Scale: p65 translocation robust z-score: higher = more nuclear NF-kappaB p65 after LPS than the plate median; nuclear/cytoplasmic p65 ratio: higher = more nuclear NF-kappaB p65
Call rule: 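Active if robust z is above 3.3 (negative regulators) or below -1.56, the Tlr4 control median (positive regulators); activity score 50 or more; control wells not called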
Calls: active = hit (p65 shift raised or lowered); inactive = no clear change

no.	target	p65 translocation robust z-score	nuclear/cytoplasmic p65 ratio, rep 1	nuclear/cytoplasmic p65 ratio, rep 2	low cell count flag
1	Ticrr (GeneID 77011)	-0.89	1.44	1.7	enough cells to score
2	Cxcl9 (GeneID 17329)	-0.27	1.46	1.55	enough cells to score
3	Rdh14 (GeneID 105014)	0.98	1.61	1.28	enough cells to score
4	Mpdu1 (GeneID 24070)	-0.38	1.81	1.46	enough cells to score
5	Vps72 (GeneID 21427)	-0.08	1.6	1.42	enough cells to score
6	Lyrm2 (GeneID 108755)	-2.15 (active)	1.14	1.15	enough cells to score
7	Zfp811 (GeneID 240063)	0.6	1.82	1.62	enough cells to score
8	Clasrp (GeneID 53609)		1.4	1.24	fewer than 50 cells per well; well left out of scoring
9	Lrrc40 (GeneID 67144)	0.61	1.79	1.62	enough cells to score
10	Klhdc8a (GeneID 213417)	1.11	1.61	1.59	enough cells to score
11	Or4c110 (GeneID 258451)	-1.22	1.39	1.47	enough cells to score
12	Or1e19 (GeneID 259026)	0.15	1.56	1.44	enough cells to score
13	Tprg1l (GeneID 67808)	-0.16	1.47	1.3	enough cells to score
14	Ugt8a (GeneID 22239)	0.31	1.59	1.52	enough cells to score
15	Zfp641 (GeneID 239652)	-0.76	1.32	1.44	enough cells to score
16	Gnpda2 (GeneID 67980)	0.84	1.74	1.68	enough cells to score
17	1700129L04Rik (retired record) (GeneID 73627)	0.03	1.58	1.42	enough cells to score
18	Or8j3 (GeneID 259019)	0.05	1.77	1.5	enough cells to score
19	Ipo13 (GeneID 230673)	-0.9	1.49	1.25	enough cells to score
20	Hip1r (GeneID 29816)	2.66	0	1.94	enough cells to score
21	Cst3 (GeneID 13010)	-0.69	1.36	1.31	enough cells to score
22	Bmpr2 (GeneID 12168)	-1.63 (active)	1.46	1.16	enough cells to score
23	Lmbrd2 (GeneID 320506)	2.59	1.82	1.87	enough cells to score
24	Ano1 (GeneID 101772)	-0.1	1.36	1.57	enough cells to score
25	Nek7 (GeneID 59125)	0.38	1.74	1.43	enough cells to score
26	Setdb1 (GeneID 84505)	-0.19	1.36	1.7	enough cells to score
27	Gab2 (GeneID 14389)	0.77	1.41	1.59	enough cells to score
28	Twf2 (GeneID 23999)		1.74	1.16	fewer than 50 cells per well; well left out of scoring
29	Trim41 (GeneID 211007)	-0.26	1.4	1.2	enough cells to score
30	Slc22a3 (GeneID 20519)	-0.06	1.34	1.29	enough cells to score
31	Efhd2 (GeneID 27984)		1.1	1.23	fewer than 50 cells per well; well left out of scoring
32	A430090L17Rik (GeneID 319803)	1.31	1.46	1.81	enough cells to score
33	Cfap65 (GeneID 241116)	0.66	1.72	1.58	enough cells to score
34	E330018D03Rik (retired record) (GeneID 320319)	2.08	1.75	1.61	enough cells to score
35	Or13a28 (GeneID 18362)	1.01	1.52	1.44	enough cells to score
36	Lin28a (GeneID 83557)		1.6	1.41	fewer than 50 cells per well; well left out of scoring
37	A530020G20Rik (GeneID 319839)	0.53	1.41	1.64	enough cells to score
38	Prelp (GeneID 116847)	0.49	1.49	1.23	enough cells to score
39	Krtap3-2 (GeneID 66708)	0.06	1.47	1.52	enough cells to score
40	Fkbp4 (GeneID 14228)	1.14	1.58	1.52	enough cells to score
41	Ier5l (GeneID 72500)	-0.05	1.43	1.42	enough cells to score
42	Grip1 (GeneID 74053)	2	2.09	1.7	enough cells to score
43	H2bc4 (GeneID 68024)	-1.31	1.43	1.39	enough cells to score
44	Hs2st1 (GeneID 23908)	0.31	1.55	1.6	enough cells to score
45	Tbc1d10a (GeneID 103724)		1.35	1.78	fewer than 50 cells per well; well left out of scoring
46	Sirt6 (GeneID 50721)	1.3	1.66	1.33	enough cells to score
47	Ap1s2 (GeneID 108012)	-0.8	1.47	1.58	enough cells to score
48	Rgs8 (GeneID 67792)	-0.4	1.39	1.47	enough cells to score
49	Ptk2b (GeneID 19229)	-0.02	1.67	1.38	enough cells to score
50	Fgl2 (GeneID 14190)	-0.15	1.5	1.5	enough cells to score
51	Pou3f4 (GeneID 18994)	0.37	1.54	1.46	enough cells to score
52	Dusp7 (GeneID 235584)	-0.6	1.59	1.31	enough cells to score
53	BC106179 (GeneID 320099)	-0.03	1.61	1.8	enough cells to score
54	Fscn3 (GeneID 56223)	-0.2	1.5	1.26	enough cells to score
55	Cenatac (GeneID 382073)	2.49	1.69	1.93	enough cells to score
56	Ccdc39 (GeneID 51938)	0.89	1.57	1.7	enough cells to score
57	Kcnv2 (GeneID 240595)	1.01	1.61	1.51	enough cells to score
58	Prl2b1 (GeneID 66392)	0.26	1.46	1.21	enough cells to score
59	Sh3pxd2b (GeneID 268396)	1.25	1.8	1.61	enough cells to score
60	C030016D13Rik (GeneID 107372)		1.21	1.39	fewer than 50 cells per well; well left out of scoring
61	Ciao1 (GeneID 26371)	-1.76 (active)	1.39	1.31	enough cells to score
62	Sim2 (GeneID 20465)	-0.6	1.35	1.59	enough cells to score
63	Ly6h (GeneID 23934)	-0.26	1.55	1.61	enough cells to score
64	Eda2r (GeneID 245527)	-0.13	1.51	1.47	enough cells to score
65	A830018L16Rik (GeneID 320492)	3.16	1.91	1.84	enough cells to score
66	Shisa5 (GeneID 66940)		1.36	1.26	fewer than 50 cells per well; well left out of scoring
67	Nfe2l2 (GeneID 18024)	-1.76 (active)	1.19	1.14	enough cells to score
68	Txndc2 (GeneID 213272)	-3.55 (active)	0.925	0.992	enough cells to score
69	Or6c76b (GeneID 258252)		1.51	1.4	fewer than 50 cells per well; well left out of scoring
70	Aamdc (GeneID 66273)	2.3	1.82	1.6	enough cells to score
71	Obox3 (GeneID 246791)	-1.12	1.56	1.35	enough cells to score
72	Tcam1 (GeneID 75870)	1.02	1.5	1.12	enough cells to score
73	Mapk14 (GeneID 26416)		1.58	1.4	fewer than 50 cells per well; well left out of scoring
74	Prrc2a (GeneID 53761)	0.5	1.65	1.93	enough cells to score
75	Cd79a (GeneID 12518)	0.07	1.56	1.39	enough cells to score

No new results follow: 3 of the entries above.
no.	target	p65 translocation robust z-score	nuclear/cytoplasmic p65 ratio, rep 1	nuclear/cytoplasmic p65 ratio, rep 2	low cell count flag
44	Hs2st1 (GeneID 23908)	0.31	1.55	1.6	enough cells to score
45	Tbc1d10a (GeneID 103724)		1.35	1.78	fewer than 50 cells per well; well left out of scoring
46	Sirt6 (GeneID 50721)	1.3	1.66	1.33	enough cells to score
